PubChem BioAssay AID1224828 – NIAID | 2016

- Test: 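Find genes required for NF-kappaB p65 moving into the nucleus after LPS in mouse macrophages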 (primary screen)
- Cell system: mouse RAW264.7 G9 macrophage reporter cells (GFP-p65, Tnf promoter-mCherry)
- Reagent: siRNA pool against mouse genes, 100 nM
- Duration: 2 days siRNA transfection, then 40 min LPS before fixation
- Treatment: LPS (Salmonella minnesota R595) at 10 ng/ml
- Measurement: 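Imaged p65 nuclear translocation ratio, normalised to the plate median, converted to robust z-scores and averaged across two replicates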
- Scale: p65 translocation robust z-score: higher = more nuclear NF-kappaB p65 after LPS than the plate median; nuclear/cytoplasmic p65 ratio: higher = more nuclear NF-kappaB p65
- Call rule: 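Active if robust z is above 3.3 (negative regulators) or below -1.56, the Tlr4 control median (positive regulators); activity score 50 or more; control wells not called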
- Meaning of the calls: active = hit (p65 shift raised or lowered); inactive = no clear change
Shown is a random part of about 17,000 reagents tested. 762 of all reagents (4.5%) were called active. 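Active calls include both raised and lowered p65 entry, mostly lowered; wells with fewer than 50 cells lack a z-score.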 The raw values are shown without normalisation.

Bcl2l12 (BCL2 like 12) [SID315475192]
- nuclear/cytoplasmic p65 ratio, rep 1: 1.15
- nuclear/cytoplasmic p65 ratio, rep 2: 1.08
- low cell count flag: fewer than 50 cells per well; well left out of scoring
- outcome: inactive

Slc22a13 [SID315476336]
- p65 translocation robust z-score: -0.54
- nuclear/cytoplasmic p65 ratio, rep 1: 1.28
- nuclear/cytoplasmic p65 ratio, rep 2: 1.24
- low cell count flag: enough cells to score
- outcome: inactive

Prkcsh (protein kinase C substrate 80K-H) [SID315468692]
- p65 translocation robust z-score: -0.22
- nuclear/cytoplasmic p65 ratio, rep 1: 1.63
- nuclear/cytoplasmic p65 ratio, rep 2: 1.37
- low cell count flag: enough cells to score
- outcome: inactive

Shisa2 (shisa family member 2) [SID315478240]
- p65 translocation robust z-score: 1.75
- nuclear/cytoplasmic p65 ratio, rep 1: 1.64
- nuclear/cytoplasmic p65 ratio, rep 2: 1.82
- low cell count flag: enough cells to score
- outcome: inactive

Tep1 (telomerase associated protein 1) [SID315469661]
- p65 translocation robust z-score: 0.19
- nuclear/cytoplasmic p65 ratio, rep 1: 1.49
- nuclear/cytoplasmic p65 ratio, rep 2: 1.6
- low cell count flag: enough cells to score
- outcome: inactive

Or5d37 (olfactory receptor family 5 subfamily D member 37) [SID315480291]
- p65 translocation robust z-score: -0.99
- nuclear/cytoplasmic p65 ratio, rep 1: 1.51
- nuclear/cytoplasmic p65 ratio, rep 2: 1.43
- low cell count flag: enough cells to score
- outcome: inactive

5330438D12Rik (RIKEN cDNA 5330438D12 gene) [SID315481451]
- p65 translocation robust z-score: 1.6
- nuclear/cytoplasmic p65 ratio, rep 1: 1.47
- nuclear/cytoplasmic p65 ratio, rep 2: 1.77
- low cell count flag: enough cells to score
- outcome: inactive

Atp12a (ATPase, H+/K+ transporting, nongastric, alpha polypeptide) [SID315477373]
- p65 translocation robust z-score: 0.38
- nuclear/cytoplasmic p65 ratio, rep 1: 1.57
- nuclear/cytoplasmic p65 ratio, rep 2: 1.66
- low cell count flag: enough cells to score
- outcome: inactive

Icam2 (intercellular adhesion molecule 2) [SID315467362]
- p65 translocation robust z-score: 2.08
- nuclear/cytoplasmic p65 ratio, rep 1: 1.85
- nuclear/cytoplasmic p65 ratio, rep 2: 1.51
- low cell count flag: enough cells to score
- outcome: inactive

Mepe [SID315476038]
- p65 translocation robust z-score: 0.42
- nuclear/cytoplasmic p65 ratio, rep 1: 1.74
- nuclear/cytoplasmic p65 ratio, rep 2: 1.65
- low cell count flag: enough cells to score
- outcome: inactive

Gja8 (gap junction protein, alpha 8) [SID315466909]
- p65 translocation robust z-score: -0.79
- nuclear/cytoplasmic p65 ratio, rep 1: 1.31
- nuclear/cytoplasmic p65 ratio, rep 2: 1.29
- low cell count flag: enough cells to score
- outcome: inactive

Bcl11a (BCL11 transcription factor A) [SID315466582]
- p65 translocation robust z-score: -0.54
- nuclear/cytoplasmic p65 ratio, rep 1: 1.47
- nuclear/cytoplasmic p65 ratio, rep 2: 1.59
- low cell count flag: enough cells to score
- outcome: inactive

Nsmaf [SID315468256]
- p65 translocation robust z-score: -0.48
- nuclear/cytoplasmic p65 ratio, rep 1: 1.35
- nuclear/cytoplasmic p65 ratio, rep 2: 1.38
- low cell count flag: enough cells to score
- outcome: inactive

Casp8 (caspase 8) [SID315465774]
- p65 translocation robust z-score: 0.64
- nuclear/cytoplasmic p65 ratio, rep 1: 1.68
- nuclear/cytoplasmic p65 ratio, rep 2: 1.74
- low cell count flag: enough cells to score
- outcome: inactive

Mtmr2 (myotubularin related protein 2) [SID315475449]
- p65 translocation robust z-score: -0.68
- nuclear/cytoplasmic p65 ratio, rep 1: 1.37
- nuclear/cytoplasmic p65 ratio, rep 2: 1.24
- low cell count flag: enough cells to score
- outcome: inactive

Gm38410 (predicted gene, 38410) [SID315481500]
- p65 translocation robust z-score: 0.44
- nuclear/cytoplasmic p65 ratio, rep 1: 1.55
- nuclear/cytoplasmic p65 ratio, rep 2: 1.54
- low cell count flag: enough cells to score
- outcome: inactive

Prdx3 (peroxiredoxin 3) [SID315465428]
- p65 translocation robust z-score: 1.04
- nuclear/cytoplasmic p65 ratio, rep 1: 1.66
- nuclear/cytoplasmic p65 ratio, rep 2: 1.53
- low cell count flag: enough cells to score
- outcome: inactive

Zkscan17 (zinc finger with KRAB and SCAN domains 17) [SID315480765]
- p65 translocation robust z-score: 2.44
- nuclear/cytoplasmic p65 ratio, rep 1: 1.69
- nuclear/cytoplasmic p65 ratio, rep 2: 1.81
- low cell count flag: enough cells to score
- outcome: inactive

Vax1 (ventral anterior homeobox 1) [SID315469985]
- nuclear/cytoplasmic p65 ratio, rep 1: 1.19
- nuclear/cytoplasmic p65 ratio, rep 2: 0
- low cell count flag: fewer than 50 cells per well; well left out of scoring
- outcome: inactive

Lrrc39 (leucine rich repeat containing 39) [SID315476809]
- p65 translocation robust z-score: 0.29
- nuclear/cytoplasmic p65 ratio, rep 1: 1.45
- nuclear/cytoplasmic p65 ratio, rep 2: 1.6
- low cell count flag: enough cells to score
- outcome: inactive

Tbcd (tubulin-specific chaperone d) [SID315476754]
- p65 translocation robust z-score: -0.19
- nuclear/cytoplasmic p65 ratio, rep 1: 1.49
- nuclear/cytoplasmic p65 ratio, rep 2: 1.5
- low cell count flag: enough cells to score
- outcome: inactive

Dspp (dentin sialophosphoprotein) [SID315481992]
- p65 translocation robust z-score: -0.01
- nuclear/cytoplasmic p65 ratio, rep 1: 1.52
- nuclear/cytoplasmic p65 ratio, rep 2: 1.34
- low cell count flag: enough cells to score
- outcome: inactive

Sec24d (SEC24 homolog D, COPII coat complex component) [SID315473847]
- p65 translocation robust z-score: 0.32
- nuclear/cytoplasmic p65 ratio, rep 1: 1.45
- nuclear/cytoplasmic p65 ratio, rep 2: 1.29
- low cell count flag: enough cells to score
- outcome: inactive

Epha7 (Eph receptor A7) [SID315466526]
- p65 translocation robust z-score: -0.17
- nuclear/cytoplasmic p65 ratio, rep 1: 1.67
- nuclear/cytoplasmic p65 ratio, rep 2: 1.36
- low cell count flag: enough cells to score
- outcome: inactive

Duox2 (dual oxidase 2) [SID315477873]
- nuclear/cytoplasmic p65 ratio, rep 1: 1.4
- nuclear/cytoplasmic p65 ratio, rep 2: 1.25
- low cell count flag: fewer than 50 cells per well; well left out of scoring
- outcome: inactive

Sptlc3 (serine palmitoyltransferase, long chain base subunit 3) [SID315478648]
- p65 translocation robust z-score: 1.31
- nuclear/cytoplasmic p65 ratio, rep 1: 1.57
- nuclear/cytoplasmic p65 ratio, rep 2: 1.75
- low cell count flag: enough cells to score
- outcome: inactive

Serf1 (small EDRK-rich factor 1) [SID315469190]
- p65 translocation robust z-score: -0.56
- nuclear/cytoplasmic p65 ratio, rep 1: 1.3
- nuclear/cytoplasmic p65 ratio, rep 2: 1.22
- low cell count flag: enough cells to score
- outcome: inactive
